Experimental data: PubChem BioAssay AID218 (DTP/NCI, 2004)
The list is a part of this screen's results and no random one: its compounds were picked by chemical class. Other doses and runs of a compound may be missing. T/C: endpoint of the treated group in % of that of the vehicle group. Some entries show no survivor count and are marked so; the dose need not have been tolerated. Schedule codes are those of the source, taken here to give the interval after Q, in days (D) or hours (H), and the number of doses after X.

Tested on: C57BL/6 mice, Adenocarcinoma 755 sc, tumor weight T/C
Test: NCI In Vivo Anticancer Drug Screen. Data for tumor model Adenocarcinoma 755 (subcutaneous) in C57BL/6 mice
Conditions: T/C endpoint: mean tumor weight, schedule: Q01DX011 (ip), vehicle: saline, evaluation day not shown, higher T/C = larger tumour
Protocol: The antitumor activity of compounds was measured in mice bearing transplantable tumors. Survival or tumor size were measured and the results are expressed as the measurement made in the treated group (T) divided by the measurement made in the vehicle treated control group (C). The tumor model used in this assay is Adenocarcinoma 755 (subcutaneous) in C57BL/6 mice

Q: Which T/C (dose: 0.05 mg/kg/injection) does the source give for `CN(CCCl)CCCl` here?
A: 85 % of control [survivor count not shown]

Q: And the T/C (dose: 0.13 mg/kg/injection)?
A: 96 % of control [survivor count not shown]

Q: What about the T/C (dose: 0.25 mg/kg/injection) of the same molecule?
A: 70 % of control [survivor count not shown]

Q: And the T/C (dose: 0.5 mg/kg/injection)?
A: 60 % of control [survivor count not shown]

Q: What about the T/C (dose: 0.75 mg/kg/injection) of the same molecule?
A: 46 % of control [survivor count not shown]
